Measurements as given in patent US7705016B2, “Regulation of food intake by modulation of long-chain fatty acyl-CoA levels in the hypothalamus” (Albert Einstein College of Medicine of Yeshiva University, priority 2003, dated 2010).

Columns and labels:
[1] = system: male Sprague-Dawley (S-D) rats; assay: ICV OA infusion with pancreatic-insulin clamp (insulin action studies); type: in vivo, rat
Excerpt: Insulin action studies. The experimental protocol herein was designed to examine the effect of nutritional status on the ability of long-chain fatty acids in the hypothalamus to modulate carbohydrate metabolism. Rats (n=43) were implanted with chronic catheters as previously described (Liu et al., 1998). After full recovery from the catheterization, animals were randomized into three groups HF55 (n=16), HF80 (n=9), or HF140 (n=18) and were allowed to consume their allocated diet for three days. On the night prior to the in vivo study all rats received 55 kcal to ensure a similar nutritional state at the start of the metabolic studies. All studies were performed in awake, unstressed, chronically catheterized rats. At t=−120 (FIG. 7a), a primed-continuous infusion of ICV OA (total dose 30- or 300-nmol) or Vehicle (HBP 10% in aCSF) was initiated and maintained throughout the duration of the study. Plasma glucose was measured periodically initiating at the onset (t=−120) of the ICV infusion and lasting throughout the duration of the study. Plasma samples for determination of insulin, leptin, and non-esterified fatty acid concentration were obtained at the onset (t=−120) and at 30 min intervals during the study. At t=0, and a primed-continuous infusion of HPLC-purified [3-3H]-glucose (New England Nuclear, Boston, Mass.; 40 μCi bolus, 0.4 μCi/min for duration of the study) was initiated and maintained for the last four hours of the study. Samples for determination of ^3H-glucose specific activity were obtained at 10-minute intervals throughout infusions. Finally, at t=120, a pancreatic-insulin clamp study was initiated and maintained for two hours. During this procedure, a primed-continuous infusion of regular insulin (1 mU/kg/min) was administered, and a variable infusion of 25% glucose solution was started at t=120 and periodically adjusted to clamp the plasma glucose concentration at ˜7 mM. The rate of insulin infusion was designed to replace the plasma insulin concentration at ˜the average basal levels in post-absorptive rats. In order to control for possible effects of the ICV injections on endocrine pancreas, somatostatin (3 μg/kg/min) was coinfused with insulin to inhibit endogenous insulin secretion. At the end of the in vivo studies, rats were anesthetized (pentobarbital 55 mg/kg body weight, intravenously) and tissue samples were freeze-clamped in situ with aluminum tongs pre-cooled in liquid nitrogen. All tissue samples were stored at −80° C. for subsequent analysis.
(§1) Analytical Procedures and Calculations. Plasma glucose was measured by the glucose oxidase method (Glucose Analyzer II, Beckman Instruments, Inc. Fullerton, Calif., USA). Plasma insulin and leptin levels were determined by RIA (rat Leptin RIA kit, Linco Research Inc., St. Charles, Mo.). Serum adiponectin was measured by RIA (Linco Research, Inc., St. Charles, Mo.). Plasma non-esterified fatty acid concentrations were determined an enzymatic method by an automated kit according to the manufacturer's specifications (Waco Pure Chemical Industries. Osaka, Japan). The radioactivity of [3-^3H]glucose in plasma was measured from supernatants of Ba (OH)2 and from ZnSO4 precipitates (Somogyi procedure), after each was evaporated to dryness for the removal of tritiated water. Hepatic uridine diphosphoglucose (UDP-glucose) concentrations and specific activities were obtained by two sequential chromatographic separations, as previously described (Giaccari and Rossetti, 1989; 1992; Rossetti et al., 1993; 1996). Calculations were performed as described (Barzilai et al., 1997).

hepatic glucose fluxes = assay: Hepatic glucose fluxes (flux through Glc-6-Pase, glucose cycling, direct pathway) after ICV OA; type: in vivo, rat
Description: as §1
ICV OA markedly decreases the in vivo flux through Glc-6-Pase. GP represents the net contribution of glucosyl units derived from gluconeogenesis and glycogenolysis. However, a portion of glucose entering the liver via phophorylation by glucokinase is also a substrate for de-phosphorylation via Glc-6-Pase. This futile cycle between glucokinase and Glc-6-Pase is commonly named glucose cycling and accounts for the difference between the total glucose output (flux through Glc-6-Pase) and GP (FIG. 9a).
In order to further delineate the mechanisms responsible for the effect of ICV OA infusion on hepatic glucose production we estimated the in vivo flux through Glc-6-Pase and the relative contribution of glucose cycling to glucose output (Table 3; FIG. 9b,c). FIG. 9b,c depict the effect of ICV OA and ICV vehicle on the rates of hepatic glucose fluxes during the pancreatic-insulin clamp procedure. In the presence of similar plasma insulin concentrations, the rate of glucose production (as shown in FIG. 8a) was decreased by ICV Office Action in the HF55 and HF80 but not in the ad libitum fed rats (HF140). […] The latter finding taken together with the moderate increase in the % direct pathway (Table 3) is consistent with a stimulatory effect of central OA on hepatic glucose phosphorylation. […] These effects of ICV OA are blunted after three days of voluntary overfeeding.

[2] = Basal, HF140, ICV OA (300 nmol)
[3] = Clamp, HF140, ICV OA (300 nmol)

SMILES: CCCCCCCC/C=C\CCCCCCCC(=O)O [OA, oleic acid]
- Body Weight ([1]; Basal, HF55, ICV OA): 295 ± 6 g
- FFA ([1]; Basal, HF55, ICV OA): 0.5 ± 0.1 mmol/L
- Food Intake(kcal/d) ([1]; Basal, HF55, ICV OA): 55 kcal/day
- Glucose ([1]; Basal, HF55, ICV OA): 7.4 ± 0.2 mmol/L
- Insulin ([1]; Basal, HF55, ICV OA): 0.7 ± 0.3 ng/mL
- Leptin ([1]; Basal, HF55, ICV OA): 1.3 ± 0.2 ng/mL
- Δ Body Weight ([1]; Basal, HF55, ICV OA): -15 ± 3 g
- Body Weight ([1]; Basal, HF80, ICV OA): -307 ± 4 g
- FFA ([1]; Basal, HF80, ICV OA): 0.4 ± 0.1 mmol/L
- Food Intake(kcal/d) ([1]; Basal, HF80, ICV OA): 80 kcal/day
- Glucose ([1]; Basal, HF80, ICV OA): 7.2 ± 0.3 mmol/L
- Insulin ([1]; Basal, HF80, ICV OA): 0.8 ± 0.2 ng/mL
- Leptin ([1]; Basal, HF80, ICV OA): 1.0 ± 0.1 ng/mL
- Δ Body Weight ([1]; Basal, HF80, ICV OA): -3 ± 8 g
- Body Weight ([1]; Basal, HF140, ICV OA (30 nmol)): 312 ± 12 g
- FFA ([1]; Basal, HF140, ICV OA (30 nmol)): 0.4 ± 0.1 mmol/L
- Food Intake(kcal/d) ([1]; Basal, HF140, ICV OA (30 nmol)): 137 ± 6 kcal/day
- Glucose ([1]; Basal, HF140, ICV OA (30 nmol)): 7.4 ± 0.1 mmol/L
- Insulin ([1]; Basal, HF140, ICV OA (30 nmol)): 1.7 ± 0.4 ng/mL
- Leptin ([1]; Basal, HF140, ICV OA (30 nmol)): 1.8 ± 0.2 ng/mL
- Δ Body Weight ([1]; Basal, HF140, ICV OA (30 nmol)): 13 ± 4 g
- Body Weight [1, 2]: 301 ± 9 g
- FFA [1, 2]: 0.5 ± 0.1 mmol/L
- Food Intake(kcal/d) [1, 2]: 150 ± 4 kcal/day
- Glucose [1, 2]: 7.4 ± 0.2 mmol/L
- Insulin [1, 2]: 1.8 ± 0.4 ng/mL
- Leptin [1, 2]: 2.0 ± 0.3 ng/mL
- Δ Body Weight [1, 2]: 11 ± 3 g
- FFA ([1]; Clamp, HF55, ICV OA): 0.4 ± 0.1 mmol/L
- Glucose ([1]; Clamp, HF55, ICV OA): 7.3 ± 0.3 mmol/L
- Insulin ([1]; Clamp, HF55, ICV OA): 0.8 ± 0.2 ng/mL
- Leptin ([1]; Clamp, HF55, ICV OA): 0.9 ± 0.1 ng/mL
- FFA ([1]; Clamp, HF80, ICV OA): 0.4 ± 0.1 mmol/L
- Glucose ([1]; Clamp, HF80, ICV OA): 7.1 ± 0.3 mmol/L
- Insulin ([1]; Clamp, HF80, ICV OA): 0.8 ± 0.1 ng/mL
- Leptin ([1]; Clamp, HF80, ICV OA): 1.0 ± 0.1 ng/mL
- FFA ([1]; Clamp, HF140, ICV OA (30 nmol)): 0.4 ± 0.1 mmol/L
- Glucose ([1]; Clamp, HF140, ICV OA (30 nmol)): 7.5 ± 0.2 mmol/L
- Insulin ([1]; Clamp, HF140, ICV OA (30 nmol)): 1.1 ± 0.2 ng/mL
- Leptin ([1]; Clamp, HF140, ICV OA (30 nmol)): 1.6 ± 0.2 ng/mL
- FFA [1, 3]: 0.5 ± 0.1 mmol/L
- Glucose [1, 3]: 7.8 ± 0.3 mmol/L
- Insulin [1, 3]: 1.2 ± 0.1 ng/mL
- Leptin [1, 3]: 1.9 ± 0.4 ng/mL
- stimulatory effect on GIR, HF55 relative to HF80 ([1]; ICV OA 30 nmol): ~2 fold
- % Direct (contribution of plasma glucose to the hepatic UDPglucose pool) (hepatic glucose fluxes; HF55): 17 ± 4%
- ^3H-Glucose Plasma SA (dpm/nmol) (hepatic glucose fluxes; HF55): 41.2 ± 4.2 dpm/nmol
- UDPglucose Liver SA (dpm/nmol) (hepatic glucose fluxes; HF55, end of pancreatic/insulin clamp): 7.4 ± 2.0 dpm/nmol
- % Direct (contribution of plasma glucose to the hepatic UDPglucose pool) (hepatic glucose fluxes; HF140): 18 ± 2%
- ^3H-Glucose Plasma SA (dpm/nmol) (hepatic glucose fluxes; HF140): 54.5 ± 3.1 dpm/nmol
- UDPglucose Liver SA (dpm/nmol) (hepatic glucose fluxes; HF140, end of pancreatic/insulin clamp): 10.0 ± 1.4 dpm/nmol
